Experimental data: PubChem BioAssay AID743456 (Peter MacCallum Cancer Centre, 2014)
Assay: 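Mimic library tested for viability and apoptosis changes under vorinostat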 (primary screen). Cells: human HCT116-VR colon cancer cells, a vorinostat-resistant HCT116 line. Reagent: miRNA mimic. Timing: about 3 days from transfection to readout; drug present for the last 24 h. Treatment: vorinostat at 2.5 µM final for 24 h. Measurement: 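Cell viability from CellTiter-Fluor signal and caspase activity from luminescence after 24 h vorinostat at 2.5 µM, given as robust z-scores and as ratios to mock-transfected wells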. Direction: viability robust z-score and viability vs mock transfection: higher = more viable cells; caspase robust z-score: higher = more caspase activity, more apoptosis. Call rule: 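Active when viability drops or caspase activity climbs beyond robust z thresholds, with wells of poor cell health excluded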.
Shown is one part, drawn at random, of 878 reagents. 27 of all reagents (3.1%) count as active. 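27 mimics are marked active, unlike an earlier stated count of 24; the viability threshold is described inconsistently.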 Entries without a mark were called inactive. Not given: the amount of reagent.

miRNA,viability robust z-score,caspase robust z-score,viability hit class,caspase hit class,viability vs mock transfection
hsa-miR-127-5p,-1.64,0.98,no change,no change,0.54
hsa-miR-1909*,-0.83,1.09,no change,no change,0.6
hsa-miR-604,-1.77,0.52,no change,no change,0.49
hsa-miR-432*,-1.8,2.17,no change,no change,0.42
hsa-miR-665,-0.54,1.09,no change,no change,0.7
hsa-miR-1179,0.68,-0.45,no change,no change,0.9
hsa-miR-675,0.04,-0.1,no change,no change,0.8
hsa-miR-200b*,0.71,-0.73,no change,no change,0.88
hsa-miR-490-3p,1.06,-0.06,no change,no change,0.97
hsa-miR-124,-0.59,0.03,no change,no change,0.69
hsa-miR-890,-0.62,-0.16,no change,no change,0.7
hsa-miR-1252,-0.56,1.07,no change,no change,0.71
hsa-miR-214*,-2.48,-0.68,no change,no change,0.38
hsa-miR-27a*,-1.73,0.86,no change,no change,0.44
hsa-miR-593,-1.69,1.86,no change,no change,0.5
hsa-miR-182*,-0.86,3.06,no change,no change,0.6
hsa-miR-378,0.36,-0.48,no change,no change,0.82
hsa-miR-130a*,0.19,-0.85,no change,no change,0.78
hsa-miR-212,0.01,0.4,no change,no change,0.8
hsa-miR-329,-0.19,2.91,no change,no change,0.76
hsa-miR-25,0.2,-0.7,no change,no change,0.82
hsa-miR-369-5p,0.45,-0.6,no change,no change,0.83
hsa-miR-32,0.7,-0.62,no change,no change,0.9
hsa-miR-655,-0.22,-0.86,no change,no change,0.75
hsa-miR-146a,-0.16,-0.98,no change,no change,0.76
hsa-miR-138-2*,0.34,-0.36,no change,no change,0.84
hsa-miR-1977,-0.03,1.75,no change,no change,0.78
hsa-miR-1237,0.25,1.31,no change,no change,0.84
hsa-miR-15b,-1.71,2.16,no change,no change,0.5
hsa-miR-548m,0.04,0.15,no change,no change,0.76
hsa-miR-100*,0.1,-0.21,no change,no change,0.76
hsa-miR-622,-0.32,1.06,no change,no change,0.74
hsa-miR-524-5p,-0.53,0.44,no change,no change,0.65
hsa-miR-7-2*,0.62,-0.43,no change,no change,0.86
